Experimental data as given in PubChem BioAssay AID2685 (National Center for Advancing Translational Sciences (NCATS), 2010).
Some of the results follow. Further columns of the screen follow, without active or inactive calls. The list favours compounds with an active or inconclusive main result. Words in brackets tell the shape of the fitted curve; partial curves, single points and poor fits give uncertain potencies.

Assay: qHTS Assay for Lipid Storage Modulators in Drosophila S3 Cells;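 as to cell number change: cells counted by Cell Tracker Red CMTPX staining in the red channel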
Conditions: BODIPY lipid droplet fluorescence, 18-24 h; for cell number change: measured here: cell count max response, cells fed with added oleic acid
Method in brief: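 Laser-scanning cytometry quantifies lipid droplet accumulation (500–530 nm total intensity; droplet/cell object ratio) in oleic acid-fed (400 uM added) Drosophila S3 cells treated with a concentration series. 20 uM Triacsin C defined 100% inhibition.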

[1] = measured here: lipid fluorescence (Fed channel) AC50, cells fed with added oleic acid
[2] = measured here: cell number channel AC50, cells fed with added oleic acid

Compound	cell number change [%]	AC50 [1]	AC50 [2]
CN(C)c1cccc(C(=O)OCC(=O)N(C)c2ccccc2)c1	10.4	29.1 µM [falling, single point]	–
CC1=C(C(=O)N2CCCC(C(=O)c3cccc4ccccc34)C2)OCCO1 (centres undefined)	-42.9	–	32.6 µM [falling, partial curve]
COCCNc1cc(C)nc2c3c(C)cc(C)nc3nn12	5.42	–	0.651 µM [rising, full curve, poor fit]
CCOc1cc(S(=O)(=O)N2CCCC2)ccc1Cl	-8.85	–	0.366 µM [falling, full curve, poor fit]
O=C(NCC(=O)N(CC1CCCO1)C1(C(=O)NC2CCCCC2)CCCCC1)c1ccccc1 (centres undefined)	27.1	0.517 µM [rising, full curve]	0.146 µM [rising, full curve]
COc1ccc(C(=O)NCC(=O)NCC(=O)OCC(=O)C(C)(C)C)cc1	-0.303	3.26 µM [rising, single point]	–
Cc1ccc(S(=O)(=O)N2CCCC(C(=O)NCC3COCCO3)C2)cc1 (centres undefined)	7.79	4.11 µM [rising, full curve]	–
Cc1cccc(CCNC(=O)C2CCCN(c3ncnc4c3nc3n4CCCCC3)C2)c1 (centres undefined)	13.4	6.51 µM [falling, single point]	–
COc1ccc(N(C(=O)c2snc(C(N)=O)c2N)C(CC(C)C)C(=O)NCC2CCCO2)cc1 (centres undefined)	-32.5	–	0.13 µM [falling, full curve, poor fit]
CCCNc1nc2c(c(=O)[nH]c(=O)n2C)n1CCCc1ccccc1	-7.22	16.4 µM [rising, single point]	–
COc1ccc(NC(=O)Nc2cc(C)ccc2F)cc1	-2.03	13 µM [rising, partial curve]	–
Cc1ccc(C)c(NC(=S)N2C3CCCC2CC(NC(=O)C2CC2)C3)c1 (centres undefined)	4.78	–	–
O=C(Nc1cc(Cl)ccc1Cl)Nn1cnnc1	29.2	–	3.66 µM [rising, single point]
CCCNC(=O)Cc1c(C)n(C(=O)c2ccc(Cl)cc2)c2ccc(OC)cc12	-34.3	2.59 µM [falling, partial curve, poor fit]	7.31 µM [falling, partial curve]
COc1ccc(NS(=O)(=O)c2cc(NC(=O)CNC(=O)c3cccc(OC)c3)ccc2C)cc1	-12.7	–	–
COCCCNC(=O)CNC(=O)c1cn(-c2ccccc2OC)c(=O)c2ccccc12	-16.6	–	–
Cc1ccnc(NC(=O)CCC(=O)N(CC(=O)NC(C)(C)C)c2ccc3c(c2)OCO3)c1	-24.8	6.51 µM [rising, single point]	–
Cc1[nH]n(C(N)=S)c(=O)c1N=Nc1cccc(C(F)(F)F)c1	–	6.51 µM [falling, single point]	0.731 µM [falling, single point]
CCC(=O)NCC(c1cccs1)N1CCOCC1 (centres undefined)	-23.6	0.00651 µM [falling, full curve, poor fit]	–

A section of the results above, as a working copy:
Compound	cell number change [%]	AC50 [1]	AC50 [2]
Cc1ccc(C)c(NC(=S)N2C3CCCC2CC(NC(=O)C2CC2)C3)c1 (centres undefined)	4.78	–	–
O=C(Nc1cc(Cl)ccc1Cl)Nn1cnnc1	29.2	–	3.66 µM [rising, single point]
CCCNC(=O)Cc1c(C)n(C(=O)c2ccc(Cl)cc2)c2ccc(OC)cc12	-34.3	2.59 µM [falling, partial curve, poor fit]	7.31 µM [falling, partial curve]
COc1ccc(NS(=O)(=O)c2cc(NC(=O)CNC(=O)c3cccc(OC)c3)ccc2C)cc1	-12.7	–	–
COCCCNC(=O)CNC(=O)c1cn(-c2ccccc2OC)c(=O)c2ccccc12	-16.6	–	–
Cc1ccnc(NC(=O)CCC(=O)N(CC(=O)NC(C)(C)C)c2ccc3c(c2)OCO3)c1	-24.8	6.51 µM [rising, single point]	–
Cc1[nH]n(C(N)=S)c(=O)c1N=Nc1cccc(C(F)(F)F)c1	–	6.51 µM [falling, single point]	0.731 µM [falling, single point]
CCC(=O)NCC(c1cccs1)N1CCOCC1 (centres undefined)	-23.6	0.00651 µM [falling, full curve, poor fit]	–

Following part

Compound	cell number change [%]	AC50 [1]	AC50 [2]
CCCn1c(N2CCN(CC(=O)c3c[nH]c4ccccc34)CC2)nc2c1c(=O)[nH]c(=O)n2C	-5.13	0.291 µM [rising, single point]	–
O=[N+]([O-])c1cccc(CN2CCN(c3ncccn3)CC2)c1	23.2	29.1 µM [rising, single point]	–
N#Cc1c(N2C(=O)c3ccc(C(=O)O)cc3C2=O)sc2c1CCCC2	46.6	29.1 µM [rising, single point]	25.9 µM [rising, single point]
O=C(NCc1ccco1)C1CCN(Cc2ccc(F)cc2)CC1	2.02	29.1 µM [falling, partial curve]	–
CC(=O)c1cccc(NC2c3ccccc3C(=O)N2Cc2ccc3c(c2)OCO3)c1 (centres undefined)	6.46	3.26 µM [rising, partial curve]	–
Cn1c(SCC(N)=O)nnc1-c1ccc(S(=O)(=O)N2CCCC2)cc1	-6.41	–	–
O=C(COC(=O)c1ccc(F)cc1Cl)NC1CCS(=O)(=O)C1 (centres undefined)	-6.09	29.1 µM [rising, single point]	–
Cc1onc(-c2ccccc2)c1C(=O)N(CC(C)C)c1c(N)n(CC(C)C)c(=O)[nH]c1=O	17.9	0.0231 µM [rising, full curve, poor fit]	–
O=Cc1sc(N2CCOCC2)nc1-c1ccccc1	-11.6	–	–
O=C1N/C(=N\N=C\c2cccs2)SC1Cc1cccc(Cl)c1 (centres undefined)	-43.6	18.4 µM [falling, partial curve, poor fit]	18.4 µM [falling, partial curve, poor fit]
Cc1cc(C)c(C#N)c(SCC(=O)C2CC2)n1	–	0.103 µM [rising, full curve, poor fit]	0.092 µM [rising, full curve, poor fit]
O=C(c1cn(-c2ccccc2)nc1-c1cccnc1)N1CCCCC1	0.2	2.59 µM [rising, single point]	–
CCOC(=O)C(=O)Nc1ccc2c(c1)OCO2	2.09	3.66 µM [rising, single point]	0.103 µM [rising, full curve, poor fit]
CCC(OC(=O)CN1C(=O)C(=O)c2ccccc21)C(=O)Nc1ccccc1OC (centres undefined)	16.9	–	–
Cc1cccc(C2CC(c3ccc(Br)cc3)Nc3nc(N)nn32)c1 (centres undefined)	0.922	0.82 µM [rising, full curve, poor fit]	–
COc1ccc(-c2csc(NNC3=NCCCCC3)n2)cc1	-57.6	29.1 µM [falling, single point]	32.6 µM [falling, partial curve, poor fit]
CC(=O)Nc1ccc(NC(=O)COC(=O)CCc2nc3ccccc3s2)cc1	-2.32	–	–
O=C(CSCc1ccccc1Cl)N1CCN(c2ccccn2)CC1	–	–	0.103 µM [rising, full curve, poor fit]
CCC1(c2ccccc2)NC(=O)N(CC(=O)Nc2cc(S(=O)(=O)N3CCOCC3)ccc2OC(C)C)C1=O (centres undefined)	25	–	0.058 µM [rising, full curve, poor fit]
